Results published in doi:10.1101/2024.05.17.594671.
No constants are given. Whether binding was seen depends on the method and setting. Some results given as binding are weak or reduced against the parent protein; the word gives no strength. Tags and fused reporters may be left off the sequences shown.

The chains behind the UniProt entries cited, without tags or fusion partners.
UniProt O95166: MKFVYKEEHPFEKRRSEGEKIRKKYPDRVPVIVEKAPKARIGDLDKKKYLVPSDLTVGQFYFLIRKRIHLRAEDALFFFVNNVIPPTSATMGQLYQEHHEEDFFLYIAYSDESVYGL

Experiments:
[1] = molecular target: T1, NBR1 (untagged, recombinant) (UniProt Q14596); assay: in vitro condensation assay
T1 sequence: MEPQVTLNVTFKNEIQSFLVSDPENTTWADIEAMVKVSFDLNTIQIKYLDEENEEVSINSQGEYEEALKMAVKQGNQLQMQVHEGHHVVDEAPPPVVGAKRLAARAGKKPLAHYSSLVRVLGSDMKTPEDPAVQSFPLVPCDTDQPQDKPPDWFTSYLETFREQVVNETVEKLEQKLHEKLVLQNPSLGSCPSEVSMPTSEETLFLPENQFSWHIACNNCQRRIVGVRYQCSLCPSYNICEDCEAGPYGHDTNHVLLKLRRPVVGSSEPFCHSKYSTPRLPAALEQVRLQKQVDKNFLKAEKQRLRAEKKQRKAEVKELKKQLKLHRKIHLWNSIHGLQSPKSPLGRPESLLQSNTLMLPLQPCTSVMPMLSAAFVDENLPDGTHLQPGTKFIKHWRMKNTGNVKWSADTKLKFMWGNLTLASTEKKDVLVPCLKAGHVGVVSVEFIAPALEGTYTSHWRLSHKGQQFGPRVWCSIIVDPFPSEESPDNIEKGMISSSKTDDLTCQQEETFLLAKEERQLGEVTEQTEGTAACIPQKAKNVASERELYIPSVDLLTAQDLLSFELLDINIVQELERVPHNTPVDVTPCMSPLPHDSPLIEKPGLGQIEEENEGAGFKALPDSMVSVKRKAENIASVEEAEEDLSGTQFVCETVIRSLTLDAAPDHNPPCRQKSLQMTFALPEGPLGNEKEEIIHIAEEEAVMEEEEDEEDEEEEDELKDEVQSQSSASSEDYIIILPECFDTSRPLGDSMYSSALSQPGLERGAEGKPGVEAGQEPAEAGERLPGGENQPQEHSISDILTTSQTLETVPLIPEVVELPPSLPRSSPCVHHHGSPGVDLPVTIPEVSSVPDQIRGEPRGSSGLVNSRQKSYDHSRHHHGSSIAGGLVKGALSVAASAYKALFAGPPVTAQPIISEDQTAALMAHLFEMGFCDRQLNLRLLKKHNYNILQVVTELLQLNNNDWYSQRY

[2] = molecular target: T2, GFP-NBR1 (recombinant, purified) (UniProt Q14596); assay: microscopy-based protein-protein interaction assay
T2 sequence: T1 sequence

GABARAP (from UniProt O95166 1-117)
binding [1]: binds | binding [2]: binds
